# Values from PubChem BioAssay AID1259308 (NCATS, 2017).
# Test: 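Genes whose loss raises luciferase production in HEK293 cells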 (primary screen)
# Cells: human HEK293 embryonic kidney cells stably expressing firefly luciferase (HEK-CMV-Luc2-Hygro)
# Reagent: single siRNA against human genes, 0.8 pmol siRNA per well
# Duration: 72 h
# Read-out: 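Reporter luminescence and viable-cell signal on separate replicate plates, given as percent of non-targeting control and median/MAD z-scores, plus per-cell luciferase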
# Reading the numbers: total luciferase, z-score: higher = more reporter protein produced
# Hit rule: 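An siRNA counts as active if its total luciferase robust z-score exceeds 3; genes with two or more such siRNAs out of three were retested with fresh siRNAs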
# Calls: active = raised luciferase; inactive = no rise
# The whole screen tested about 59,000 reagents; this is a random part of them. Over the whole deposit, about 1,510 (2.6%) are marked active. 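Calls use total luciferase alone and ignore viability, so some active siRNAs may act by altering cell number.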 Entries without a mark were called inactive. Reagents against one gene are numbered here. Not all columns of the deposit are shown.
gene,reagent,"total luciferase, z-score"
PIK3CD-AS1 (GeneID 644997),1,1.51
PIK3CD-AS1 (GeneID 644997),2,-0.123
PIK3CD-AS1 (GeneID 644997),3,0.421
SLITRK3 (GeneID 22865),1,-0.853
SLITRK3 (GeneID 22865),2,0.83
SLITRK3 (GeneID 22865),3,-1.33
OTUB1 (GeneID 55611),1,0.919
OTUB1 (GeneID 55611),2,1.49
OTUB1 (GeneID 55611),3,1.14
UBASH3A (GeneID 53347),1,0.405
UBASH3A (GeneID 53347),2,-1.01
UBASH3A (GeneID 53347),3,-0.732
ZC2HC1B (GeneID 153918),1,0.692
ZC2HC1B (GeneID 153918),2,2.23
ZC2HC1B (GeneID 153918),3,-2.58
MAZ (GeneID 4150),1,0.259
MAZ (GeneID 4150),2,-0.835
MAZ (GeneID 4150),3,-0.373
RPL31P13 (GeneID 100270983),1,0.376
RPL31P13 (GeneID 100270983),2,0.613
RPL31P13 (GeneID 100270983),3,-0.768
KLHDC2 (GeneID 23588),1,-0.935
KLHDC2 (GeneID 23588),2,0.134
KLHDC2 (GeneID 23588),3,1.25
RIN1 (GeneID 9610),1,-1.32
RIN1 (GeneID 9610),2,1.08
RIN1 (GeneID 9610),3,0.492
LYN (GeneID 4067),1,-0.582
LYN (GeneID 4067),2,0.157
LYN (GeneID 4067),3,-1.27

Next part (5 carried over from the part before).
gene,reagent,"total luciferase, z-score"
RIN1 (GeneID 9610),2,1.08
RIN1 (GeneID 9610),3,0.492
LYN (GeneID 4067),1,-0.582
LYN (GeneID 4067),2,0.157
LYN (GeneID 4067),3,-1.27
PRKCG (GeneID 5582),1,1.14
PRKCG (GeneID 5582),2,-0.685
PRKCG (GeneID 5582),3,5.31 (active)
ZDBF2 (GeneID 57683),1,0.391
ZDBF2 (GeneID 57683),2,0.0434
ZDBF2 (GeneID 57683),3,0.715
OR9Q2 (GeneID 219957),1,2.03
OR9Q2 (GeneID 219957),2,-1.5
OR9Q2 (GeneID 219957),3,-0.379
CRYBG1 (GeneID 202),1,0.424
CRYBG1 (GeneID 202),2,0.215
CRYBG1 (GeneID 202),3,0.951
DDX39A (GeneID 10212),1,0.307
DDX39A (GeneID 10212),2,-0.877
DDX39A (GeneID 10212),3,-0.767
PDE6A (GeneID 5145),1,2.06
PDE6A (GeneID 5145),2,-0.15
PDE6A (GeneID 5145),3,1.17
SENP5 (GeneID 205564),1,-0.793
SENP5 (GeneID 205564),2,-0.298
SENP5 (GeneID 205564),3,0.223
MFSD12 (GeneID 126321),1,-0.217
MFSD12 (GeneID 126321),2,-1.55
MFSD12 (GeneID 126321),3,-1.57
PRSS45P (GeneID 377047),1,1.91
PRSS45P (GeneID 377047),2,-0.963
PRSS45P (GeneID 377047),3,-0.629
